Measurements taken from article PMC11526107.

Columns and labels:
Flag-tagged STING = target: T1, Flag-tagged STING (UniProt Q3TBT3); test: co-IP; HEK293T cells transfected with tagged plasmids; IP buffer 1.0% Nonidet P 40, 50 mM Tris-HCl pH 7.4, 50 mM EDTA, 150 mM NaCl
T1 sequence: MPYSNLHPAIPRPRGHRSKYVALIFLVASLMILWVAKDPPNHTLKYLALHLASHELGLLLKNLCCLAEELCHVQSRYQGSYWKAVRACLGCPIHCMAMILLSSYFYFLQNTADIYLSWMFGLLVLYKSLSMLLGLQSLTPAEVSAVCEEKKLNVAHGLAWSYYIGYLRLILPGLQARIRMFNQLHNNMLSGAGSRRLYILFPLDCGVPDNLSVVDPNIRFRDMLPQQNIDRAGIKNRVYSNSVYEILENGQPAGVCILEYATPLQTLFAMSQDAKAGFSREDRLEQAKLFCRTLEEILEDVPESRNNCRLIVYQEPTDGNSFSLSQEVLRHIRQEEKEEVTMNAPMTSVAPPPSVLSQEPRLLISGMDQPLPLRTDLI

[1] = target: T2, Stimulator of interferon genes (STING), endogenous in mouse peritoneal macrophages (mouse (endogenous in peritoneal macrophages)) (UniProt Q3TBT3); test: co-IP; endogenous proteins in mouse peritoneal macrophages, resting or stimulated with ISD or cGAMP; IP buffer 1.0% Nonidet P 40, 50 mM Tris-HCl pH 7.4, 50 mM EDTA, 150 mM NaCl; antibody with protein G Plus-Agarose overnight, five washes
T2 sequence: T1 sequence

Substance | binding (Flag-tagged STING) | binding [1]
HA-tagged ZAPL | binds | –
ZAPS (ZC3HAV1 short isoform), endogenous in mouse peritoneal macrophages | – | binds

These are yes or no findings as the source states them, for the method shown. Binding seen in cells or lysates may run through a third protein. A result given as binding can be weak or reduced; the word gives no strength. For some assays here: Sequences can lack the tags named with a protein.
